According to PubChem BioAssay AID540276 (National Center for Advancing Translational Sciences (NCATS), 2011):
Where “and” joins values, the source holds several entries; their conditions need not be identical. Identical values can stand only once. About 5,400 (1.8%) of roughly 300,000 compounds were called active. The shares of active, inactive and inconclusive entries below differ from those in the screen. The call rests on the fitted dose curve; tested in HEK293 cells. Potencies beside an inconclusive call are fits to weak or partial responses and may not hold up.

Assay: qHTS for inhibitors of binding or entry into cells for Marburg Virus
Details: Marburg virus pseudotyped entry inhibition, cell reporter; series mostly up to 37.8 µM
Potency means the concentration at half of the fitted maximal effect.

Row | SMILES | Potency
1 | CN(C)CCNC(=O)c1csc(Nc2cccc3ccccc23)n1 | active: 10 µM
2 | C=CCN(Cc1nc(-c2ccccc2)no1)C(=O)c1ccc2c(c1)OCO2 | inconclusive: 20 µM [inhibitor, single point]
3 | Cc1ccc(Nc2nnc(SCc3ccccc3)s2)cc1 | inconclusive: 7.08 µM [inhibitor, partial curve, poor fit]
4 | COc1ccccc1NC(=O)N(Cc1cccs1)Cc1cc2cc3c(cc2[nH]c1=O)OCO3 | inconclusive: 12.6 µM [inhibitor, partial curve, poor fit]
5 | Cn1cnnc1-c1cccc(NC(=O)c2cc(F)c(F)cc2Cl)c1 | inactive
6 | CN(C)c1ccc(P(=O)(Nc2ccc([N+](=O)[O-])cc2)N2CCOCC2)c(NC(=O)c2cccs2)c1 (configuration not stated) | inconclusive: 11.2 µM [inhibitor, single point]
7 | CCOC(=O)c1cc(S(=O)(=O)NCC2CCN(Cc3cccc(C)c3)CC2)cn1C | inconclusive: 10 µM [inhibitor, partial curve, poor fit]
8 | O=C(COC(=O)C1CC1)NCCc1ccccc1 | inactive
9 | Cc1cccc(NC(=O)CSc2nnnn2C2CCCC2)c1 | inactive
10 | CN1CCN(S(=O)(=O)c2ccc(N3CCN(C(=O)c4ccccc4)CC3)nc2)CC1 | inactive
11 | CCOC(=O)N1CCC(NC(=O)CSCc2nc(-c3cccc(OC)c3)oc2C)CC1 | inactive and inconclusive: 580 nM [inhibitor, full curve, poor fit]
12 | Cc1ccc(OCC(O)CNCc2ccc(F)cc2)cc1 (configuration not stated) | inconclusive: 11.2 µM [inhibitor, partial curve, poor fit]
13 | CC(=O)NC1=NN(C(C)=O)C(C)(CS(=O)(=O)c2ccc(Cl)cc2)S1 (configuration not stated) | inactive
14 | CCOC(=O)N1CCN(CC(O)c2c[nH]c3ccc(OC)cc23)CC1 (configuration not stated) | inconclusive: 6.31 µM [inhibitor, single point]
15 | COc1ccccc1N1CCN(c2nc(C)nc3c2oc2ccccc23)CC1 | inconclusive: 23.1 µM [inhibitor, partial curve, poor fit]
16 | O=C(COC(=O)c1ccc2c(c1)OCO2)Nc1nc(-c2ccccc2)cs1 | inactive
17 | CC(/C=C/c1ccccc1)=N\NC(N)=S | inconclusive: 35.5 µM [inhibitor, single point]
18 | COc1ccc(C(=O)NCCn2ccc3ccccc32)cc1 | inconclusive: 3.16 µM [activator, single point]
19 | O=c1cc(-c2ccc(F)cc2)oc2ccccc12 | inconclusive: 17.8 µM [activator, single point]
20 | Nc1nonc1C(=O)NCCNC(=O)c1cccc(Cl)c1 | inactive
21 | O=C1N/C(=C/c2cccs2)C(=O)N1Cc1ccc(Br)cc1 | inactive
22 | CCCCOc1cccc(C(=O)N2CCN(CCc3ccncc3)CC2)c1 | inconclusive: 2.82 µM [activator, single point]
23 | COCCNC(=S)Nc1cccc2cnccc12 | inconclusive: 15.8 µM [activator, partial curve, poor fit]
24 | Cc1ccc(C(=O)CSc2nnc(COc3ccccc3)o2)cc1 | inactive

Row | SMILES | Potency
25 | COc1ccc(S(=O)(=O)N2c3ccccc3OCC2c2ccccc2)cc1 (configuration not stated) | inconclusive: 0.259 µM [inhibitor, partial curve, poor fit]
26 | COC(=O)C(=Nc1ccccc1)/C(C(=O)C(=O)N(C)c1ccccc1)=C(\O)c1ccccc1 | inconclusive: 17.8 µM [activator, partial curve, poor fit]
27 | Cc1c(Cl)cccc1-c1ccc(/C=C(\C#N)c2nc3ccccc3[nH]2)o1 | inconclusive: 35.5 µM [inhibitor, single point]
28 | O=C(COC(=O)c1cc(Br)ccc1O)NCC1CCCO1 (configuration not stated) | inconclusive: 0.891 µM [inhibitor, single point]
29 | Oc1ccc(CCNc2c3ccccc3nc3ccccc23)cc1O | active: 10 µM
30 | Cc1cc(O)ccc1-c1cnc2ccccc2n1 | inactive
31 | COc1ccc2c(c1)C(C)=CC(C)(C)N2C(=O)CNCc1ccc2c(c1)OCO2 | inconclusive: 29.1 µM [inhibitor, single point]
32 | Cn1cc(Br)c(C(=O)N2CCc3ccccc32)n1 | inactive
33 | O=C(NCC(=O)N1CCCCCC1)c1ccc(Br)cc1 | inconclusive: 31.6 µM [activator, single point]
34 | O=C(O)c1cc(N/N=C/c2ccc(OCc3ccccc3)cc2)ccc1Cl | inconclusive: 7.08 µM [activator, full curve, poor fit]
35 | CCOC(=O)Nc1nc2ccccc2s1 | inactive
36 | NC(=O)c1nsc(C(=O)N(c2ccc3c(c2)OCO3)C(C(=O)NCC2CCCO2)c2ccc(F)cc2)c1N (configuration not stated) | inconclusive: 5.01 µM [inhibitor, single point]
37 | Nc1ccc(Oc2ccc3c(c2)OCO3)cc1 | inactive
38 | COc1ccccc1CCN=C(N)NS(=O)(=O)c1ccccc1F | inconclusive: 0.398 µM [inhibitor, single point]
39 | NC(=O)CSc1nnc(Cc2csc(Nc3ccc(F)cc3)n2)n1Cc1ccccc1 | inconclusive: 12.6 µM [inhibitor, single point]
40 | Cc1ccc(/C=N/Nc2ccnc3cc(Cl)ccc23)c(C)c1 | inconclusive: 20.6 µM [inhibitor, partial curve, poor fit]
41 | Cc1cc(N2C(=O)CC(N3CCN(C(c4ccccc4)c4ccccc4)CC3)C2=O)no1 (configuration not stated) | inactive
42 | CSc1cccc(NS(=O)(=O)c2ccc(F)cc2)c1 | inactive
43 | Cc1nn(CC(=O)NC2CCS(=O)(=O)C2)c(C)c1[N+](=O)[O-] (configuration not stated) | inconclusive: 11.2 µM [activator, partial curve, poor fit]
44 | Cc1cc(NC(=O)CCC(=O)N(CC(=O)NC2CCCC2)c2ccccc2)no1 | inactive
45 | O=C(Nc1ccc2c(c1)OCO2)N1CCN(Cc2ccco2)CC1 | inconclusive: 35.5 µM [inhibitor, single point]
46 | CCOCCCNS(=O)(=O)c1ccc(Br)cc1 | inactive
47 | CCOc1cc(/C=C2/NC(=O)N(Cc3ccccc3F)C2=O)ccc1O | active: 15.8 µM
48 | O=C(Cn1ccc(C(F)(F)F)n1)N/N=C/c1ccc2c(c1)OCO2 | inactive

Row | SMILES | Potency
49 | CCOC(=O)c1c(NC(=O)CSc2nnc(CNc3ccc(C)cc3C)o2)sc(C)c1C | inconclusive: 15.8 µM [inhibitor, single point]
50 | COc1ccc(N2CCN(C(=O)c3cn(C)c(=O)c4c3c3ccccc3n4C)CC2)cc1 | inactive
51 | O=C(NCCN1CCN(c2ccccc2)CC1)c1ccc2c(c1)[nH]c(=S)n1c3ccccc3nc21 | inconclusive: 5.62 µM [inhibitor, single point]
52 | COc1cc2c(cc1NC(=O)COC(=O)[C@@H](NC(=O)c1ccccc1)C(C)C)oc1ccccc12 | inconclusive: 7.08 µM [inhibitor, partial curve, poor fit]
53 | Cc1ccccc1N(C(=O)c1csnn1)C(C(=O)NC1CCCCC1)c1ccncc1 (configuration not stated) | inconclusive: 35.5 µM [inhibitor, single point]
54 | O=Cc1cc2ccccc2nc1SCc1ccc(Cl)c(Cl)c1 | active: 2.24 µM
55 | COc1cccc(C(=O)NNC(=O)C2CC(C)=C(C)CC2C(=O)O)c1 (configuration not stated) | inactive
56 | CCC1CN2CCc3cc(OC)c(OC)cc3C2CC1CC1c2cc(OC)c(OC)cc2CCN1C(=O)C(Cc1c[nH]c2ccccc12)NC(=O)OC(C)(C)C (configuration not stated) | inconclusive: 8.91 µM [inhibitor, partial curve, poor fit]
57 | COc1ccc(/C=C2/N=C(SCC(=O)Nc3cc(C)on3)N(c3ccccc3)C2=O)cc1 | inactive
58 | COc1ccc(-n2cnnc2SCC(=O)Nc2ccc(N3CCOCC3)cc2)cc1 | inconclusive: 5.62 µM [activator, single point]
59 | O=C(O)CCCC(=O)NCCc1cccc(Cl)c1 | inconclusive: 0.058 µM [inhibitor, full curve, poor fit]
60 | CCn1c(-c2ccccc2SC)n[nH]c1=S | inactive
61 | COc1cc([C@@H]2[C@H]3CN(C)CC=C3C(C#N)=C(N)C2(C#N)C#N)cc2c1OCO2 | inactive
62 | COc1ccc2nc(Nc3sc4c(c3C(N)=O)CCCC4)sc2c1 | inactive
63 | Cc1cc(=O)[nH]c(N/N=C/c2cccs2)n1 | inconclusive: 32.6 µM [activator, single point]
64 | CCCn1c(=S)[nH]c2cc(OC)c(OC)cc2c1=O | inconclusive: 9.2 µM [inhibitor, partial curve]
65 | Cc1cc(OCC(=O)NC(C)(C)C)ccc1Cl | inconclusive: 5.62 µM [activator, single point]
66 | Cc1ccc(CN2CCN(C(=O)c3cccc4ccccc34)CC2)cc1 | inconclusive: 11.2 µM [inhibitor, partial curve, poor fit]
67 | O=C(OCc1nc2ccccc2s1)c1ccc(Br)s1 | inconclusive: 25.9 µM [activator, partial curve, poor fit]
68 | Cc1ccc(OCCn2cc(/C=N/NC(=O)c3ccncc3)c3ccccc32)cc1 | inconclusive: 15.8 µM [inhibitor, single point]
69 | Cc1ccc(C2=CSC3=NCCN23)c(C)c1 | inactive
70 | Cc1nc(N)nc(N)c1-c1ccc([N+](=O)[O-])cc1 | inconclusive: 35.5 µM [inhibitor, single point]
71 | Cc1ccc(NC(=O)COc2ccc(-c3nnco3)cc2)cc1S(=O)(=O)N1CCOCC1 | inconclusive: 35.5 µM [inhibitor, single point]
72 | Cc1cccc(NC(=S)NC(NC(=O)c2ccco2)C(Cl)(Cl)Cl)c1 (configuration not stated) | inconclusive: 11.2 µM [inhibitor, partial curve, poor fit]
